Measured values taken from PubChem BioAssay AID540275 (National Center for Advancing Translational Sciences (NCATS), 2011).
Out of some 320,000 compounds screened, about 620 (0.19%) were called active. The shares of active, inactive and inconclusive entries below differ from those in the screen. Cut-off read from the data, not from the text of the source: active = activation above about 80%; inconclusive = between about 30% and that limit; inactive = weaker than that.

The chains behind the UniProt entries cited, without tags or fusion partners.
UniProt Q8NER1, whole entry, looked up: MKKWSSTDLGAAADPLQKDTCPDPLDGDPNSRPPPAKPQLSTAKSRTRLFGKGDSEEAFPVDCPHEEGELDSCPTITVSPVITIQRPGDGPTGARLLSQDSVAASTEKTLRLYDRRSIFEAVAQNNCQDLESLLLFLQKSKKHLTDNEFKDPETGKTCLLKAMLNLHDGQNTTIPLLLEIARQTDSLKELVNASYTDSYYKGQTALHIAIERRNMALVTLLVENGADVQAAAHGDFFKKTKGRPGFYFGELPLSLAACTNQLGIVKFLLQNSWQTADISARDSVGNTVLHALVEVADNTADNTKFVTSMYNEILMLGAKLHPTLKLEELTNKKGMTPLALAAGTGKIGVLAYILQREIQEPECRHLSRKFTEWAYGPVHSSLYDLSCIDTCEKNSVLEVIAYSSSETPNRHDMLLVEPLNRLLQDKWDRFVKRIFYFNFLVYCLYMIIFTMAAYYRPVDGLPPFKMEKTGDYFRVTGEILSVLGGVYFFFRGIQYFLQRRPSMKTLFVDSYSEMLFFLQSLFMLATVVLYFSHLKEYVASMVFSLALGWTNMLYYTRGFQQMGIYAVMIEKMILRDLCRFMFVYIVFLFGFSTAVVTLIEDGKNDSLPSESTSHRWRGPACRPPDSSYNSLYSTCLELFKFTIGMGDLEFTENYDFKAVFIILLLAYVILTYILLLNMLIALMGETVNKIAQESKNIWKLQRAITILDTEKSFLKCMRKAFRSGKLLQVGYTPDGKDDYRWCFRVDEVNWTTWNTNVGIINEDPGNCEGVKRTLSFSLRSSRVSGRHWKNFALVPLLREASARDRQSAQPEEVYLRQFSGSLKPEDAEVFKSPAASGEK

These molecules were tested against Transient receptor potential cation channel subfamily V member 1 (Homo sapiens) (UniProt Q8NER1) (assay: HTS Assay for Compounds that Act as Agonists of the Vanilloid Receptor 1). Conditions: TRPV1-expressing cells, Fluo-8 calcium influx, agonist mode; at 8.33 µM, active compounds read high.
Procedure, shortened: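 Cells expressing TRPV1 were dye-loaded with Fluo-8 and read kinetically: 10 s baseline, 3 min after compound (agonist portion), then 2 min after EC20 capsaicin (allosteric enhancer portion). Calcium-bound dye fluorescence at 480/520 nm.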
Note: 0% is about no effect.

Compound	activation
CC(C)Sc1ccc(C(=O)Nc2ccc(F)cc2F)cn1	active: 85.5%
Cc1ccc(-c2cnc(-c3ccncc3)o2)cc1	inconclusive: 65.6%
O=C(Nc1ccccc1)c1ccc2c(c1)OCCCO2	inconclusive: 63.1%
S=C(NCc1ccco1)NC1CCCc2ccccc21 (centres undefined)	inconclusive: 45.7%
CNC(=S)N1CCN(c2nc3ccccc3s2)CC1	inconclusive: 31.2%
Cc1ncsc1CCC(=O)N1CCCC(Nc2ccc(C(C)C)cc2)C1 (centres undefined)	active: 83.7%
CSCCC(NC(=O)c1ccccc1)c1nc(-c2ccccc2)no1 (centres undefined)	inconclusive: 36.2%
S=C(NCc1ccccc1)NC1CCCc2ccccc21 (centres undefined)	inconclusive: 69.8%
NC(=O)C1=C[C@@H](c2csc3ccccc23)C[C@@H](OCc2ccc(CO)cc2)O1	inconclusive: 32.9%
Cc1sc2ncnc(SCC(=O)c3ccc4c(c3)OCCO4)c2c1-c1ccccc1	inactive: 1.5%
CCOC(=O)c1ccc(NC(=O)CCc2ccc(CC)o2)cc1	inconclusive: 30.7%
Cc1nc(-c2ccc(C(=O)NCCO)cc2)cs1	inactive: 6.59%
O=C(Nc1cccc(F)c1)NC1CCCc2ccccc21 (centres undefined)	inconclusive: 61.3%
COCCN(Cc1ccccc1)C(=O)c1ccc(C(=O)c2ccccc2)cc1	inactive: 10.3%
N#Cc1ccc(C(=O)NC2CCCCCCC2)cc1	inconclusive: 32.8%
O=C(CSc1nc2ccc(Cl)cc2[nH]1)NC1CCCC1	inconclusive: 67.7%
O=C(c1cc(-c2ccc(Cl)cc2Cl)on1)N1CCCC1	inconclusive: 64%
COC(=O)c1ccc(Nc2ncnc3sccc23)cc1	inconclusive: 49%
CCC(=O)Oc1ccc(C(=O)Nc2ccc3c(c2)OCO3)cc1	inconclusive: 39.2%
O=C(Nc1ccc(Br)cc1)c1cnccn1	inconclusive: 36.3%

Taken from above:
activation with `Cc1sc2ncnc(SCC(=O)c3ccc4c(c3)OCCO4)c2c1-c1ccccc1` is entered as inactive: 1.5%
activation with `N#Cc1ccc(C(=O)NC2CCCCCCC2)cc1` is entered as inconclusive: 32.8%
activation with `S=C(NCc1ccccc1)NC1CCCc2ccccc21` (centres undefined) is entered as inconclusive: 69.8%

Continued:

Compound	activation
O=C(CNC1CCCCC1)Nc1cccc(C(F)(F)F)c1	inconclusive: 50.6%
CC1CCCN(c2nc3c(c(=O)[nH]c(=O)n3C)n2CCCc2ccccc2)C1 (centres undefined)	inconclusive: 30.5%
CCOC(=O)C1=C(C)NC(C)=C(C(=O)OCC)C1C(=O)OCC(=O)N(C)C	inactive: 0.738%
COc1cc(C(C)=O)ccc1OCC(O)CN1CCN(S(=O)(=O)c2ccccc2)CC1 (centres undefined)	inactive: 2.73%
CC(=O)NC(c1cccs1)c1cc([N+](=O)[O-])c2cccnc2c1O (centres undefined)	inactive: -2.87%
CCOc1ccc(CC(=NCCc2ccccc2)C2=C(O)CC(C)(C)CC2=O)cc1OCC	inconclusive: 38.3%
Clc1ccccc1CSc1nnc(-c2ccccn2)n1Cc1ccco1	inconclusive: 30.1%
O=C(Cn1cnc2ccccc2c1=O)Nc1nc2ccccc2s1	inactive: -0.941%
Cc1ccccc1C(=O)N1CCN(c2ccc(NC(=S)NC(=O)c3cccs3)cc2)CC1	inactive: 1.09%
O=c1oc2ccccc2cc1-c1nc(-c2ccccc2)no1	inactive: 22.4%
CCOC(=O)C(Cc1cc(C(C)=O)ccc1OC(C)C)C(=O)OCC	inconclusive: 30.2%
CCCCN(CCCC)C1=Nc2ccccc2N/C1=C(/C#N)C(=O)OCC	inconclusive: 68.1%
COc1ccc(C(C(=O)NC2CCCC2)N(C(=O)c2ccoc2C)c2ccc(C)cc2)cc1 (centres undefined)	inconclusive: 38.2%
Cc1ccc(Oc2coc3cc(OC(=O)c4cccs4)ccc3c2=O)cc1	inconclusive: 38.3%
O=C(Nc1ccncc1)C1CCN(S(=O)(=O)c2ccccc2)CC1	inactive: -3.37%
O=C(NCCc1ccccc1)c1ccc(Cl)c([N+](=O)[O-])c1	inconclusive: 73.9%
CCN1CCN(C2=CC3=CC(=C(C#N)C#N)CCC3CC2)CC1 (centres undefined)	active: 99.2%
CC(NC(=O)c1ccccc1NS(=O)(=O)c1ccc(CCC(=O)O)cc1)c1ccccc1 (centres undefined)	inactive: -1.19%
Cn1c(=O)n(Cc2ccccc2F)c(=O)c2c1nc1n2CCN1Cc1ccco1	inconclusive: 30.5%
Cc1ccc2[nH]c3c(N4CCN(Cc5ccc6c(c5)OCO6)CC4)ncnc3c2c1	inconclusive: 66.7%

Compound	activation
Cc1cc(OCCCCN2C(=O)NC(C)(C)C2=O)cc(C)c1Cl	inconclusive: 56.3%
CC(=O)c1cccc(NC(=O)c2sc(Cl)nc2C)c1	inconclusive: 39.3%
Cc1ccc(C(=O)NCc2ccc(Cl)c(Cl)c2)o1	inconclusive: 52.1%
O=c1[nH]c(C2CCN(S(=O)(=O)c3ccccc3C(F)(F)F)CC2)nc2c1nnn2Cc1cccc(F)c1	inactive: 0.892%
N#CC(c1cccc(C(F)(F)F)c1)(c1ncc(C(F)(F)F)cc1Cl)N1CCOCC1 (centres undefined)	inconclusive: 34.1%
N#C/C(=C\c1ccc(N2CCOCC2)o1)c1nc2ccccc2[nH]1	inactive: -2.57%
COc1ccccc1NS(=O)(=O)c1cccc(C(=O)N/N=C/c2ccc3c(c2)OCCO3)c1	inactive: 2.36%
Cc1cc(Nc2ccc([N+](=O)[O-])cc2)c2ccccc2n1	inconclusive: 38.4%
Cc1ccc(NC(=O)c2cc3c(s2)CCCC3)cc1S(=O)(=O)Nc1ccccc1Cl	inconclusive: 30.4%
COc1ccc(-c2ccc(C)cc2)cc1[C@H]1[C@H]2C=CC[C@@H](C)[C@@H]2C(=O)N1Cc1ccccc1	inconclusive: 47.1%
CN(C(=O)c1ccco1)c1nnc(C23CC4CC(CC(C4)C2)C3)s1	inconclusive: 46.1%
O=C(NNc1c2ccccc2nc2ccccc12)C12CC3CC(CC(C3)C1)C2	inconclusive: 48.3%
Cc1ccc2cc(NC(=O)Cc3ccccc3)ccc2n1	inactive: 5.24%
COc1ccc(C(=O)NNC(=O)CSc2nnc(C3CC3)n2C)cc1	inactive: 1.02%
CC(C)c1c(C(=O)N/N=C/c2ccoc2)nnn1-c1nonc1N	inconclusive: 51%
COc1ccc(NS(=O)(=O)c2ccc3c(c2)OCCO3)cc1OC	inactive: 1.2%
COCCn1cnc2c(c1=O)c1nc3ccccc3nc1n2/N=C/c1ccco1	inactive: -0.323%
O=C(/C=C/c1c(F)cccc1Cl)Nc1ccncc1	inconclusive: 61.2%
Cc1nnc(NC(=O)CSc2nccn2Cc2ccccc2)s1	inactive: -0.665%
